Assay [1] addresses T1, MYC-associated zinc finger protein (human (endogenous in IMR32 and SH-SY5Y)) (UniProt P56270).
T1 sequence: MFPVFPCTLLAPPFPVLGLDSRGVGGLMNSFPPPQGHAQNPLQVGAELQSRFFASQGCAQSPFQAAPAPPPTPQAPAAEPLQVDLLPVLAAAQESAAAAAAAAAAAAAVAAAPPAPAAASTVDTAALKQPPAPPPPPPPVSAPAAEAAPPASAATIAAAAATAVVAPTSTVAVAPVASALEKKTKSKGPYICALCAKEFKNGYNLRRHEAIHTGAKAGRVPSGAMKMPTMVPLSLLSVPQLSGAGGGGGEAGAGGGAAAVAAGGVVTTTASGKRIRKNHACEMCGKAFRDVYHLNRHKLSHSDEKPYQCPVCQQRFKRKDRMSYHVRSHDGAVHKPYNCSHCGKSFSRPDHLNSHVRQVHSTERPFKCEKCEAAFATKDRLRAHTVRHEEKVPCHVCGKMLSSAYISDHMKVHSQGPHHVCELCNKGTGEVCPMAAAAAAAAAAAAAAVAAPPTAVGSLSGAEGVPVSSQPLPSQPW
In words: co-IP; endogenous proteins of IMR32 and SH-SY5Y cells; antibodies to EWSR1 (sc-28327) or MAZ (ab85725), Western blot; also in cells stably transfected with circ-CUX1 (interaction increased) or sh-circ-CUX1 #1 (interaction decreased).

Chains of the proteins cited; added tags and fusions are not shown.
UniProt Q01844: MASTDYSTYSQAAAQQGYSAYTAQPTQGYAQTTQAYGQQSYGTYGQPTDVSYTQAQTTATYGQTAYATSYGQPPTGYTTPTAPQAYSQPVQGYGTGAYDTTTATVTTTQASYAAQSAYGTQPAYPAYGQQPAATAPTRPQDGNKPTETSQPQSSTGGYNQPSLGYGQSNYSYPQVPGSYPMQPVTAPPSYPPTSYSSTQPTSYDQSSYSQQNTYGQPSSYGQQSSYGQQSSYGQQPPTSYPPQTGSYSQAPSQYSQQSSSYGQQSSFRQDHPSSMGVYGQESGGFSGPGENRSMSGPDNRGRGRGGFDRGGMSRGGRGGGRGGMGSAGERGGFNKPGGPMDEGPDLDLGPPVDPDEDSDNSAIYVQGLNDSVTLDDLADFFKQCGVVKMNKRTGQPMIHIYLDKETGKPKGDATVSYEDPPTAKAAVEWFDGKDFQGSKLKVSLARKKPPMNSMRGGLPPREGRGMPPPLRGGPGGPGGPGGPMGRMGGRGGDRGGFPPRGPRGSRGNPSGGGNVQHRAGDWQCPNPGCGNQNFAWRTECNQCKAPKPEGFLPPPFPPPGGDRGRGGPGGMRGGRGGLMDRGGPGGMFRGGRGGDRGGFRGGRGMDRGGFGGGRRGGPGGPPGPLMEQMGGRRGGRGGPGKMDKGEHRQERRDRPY

For the next assay, the target named is T2, Flag-tagged MAZ (human) (UniProt P56270).
T2 sequence: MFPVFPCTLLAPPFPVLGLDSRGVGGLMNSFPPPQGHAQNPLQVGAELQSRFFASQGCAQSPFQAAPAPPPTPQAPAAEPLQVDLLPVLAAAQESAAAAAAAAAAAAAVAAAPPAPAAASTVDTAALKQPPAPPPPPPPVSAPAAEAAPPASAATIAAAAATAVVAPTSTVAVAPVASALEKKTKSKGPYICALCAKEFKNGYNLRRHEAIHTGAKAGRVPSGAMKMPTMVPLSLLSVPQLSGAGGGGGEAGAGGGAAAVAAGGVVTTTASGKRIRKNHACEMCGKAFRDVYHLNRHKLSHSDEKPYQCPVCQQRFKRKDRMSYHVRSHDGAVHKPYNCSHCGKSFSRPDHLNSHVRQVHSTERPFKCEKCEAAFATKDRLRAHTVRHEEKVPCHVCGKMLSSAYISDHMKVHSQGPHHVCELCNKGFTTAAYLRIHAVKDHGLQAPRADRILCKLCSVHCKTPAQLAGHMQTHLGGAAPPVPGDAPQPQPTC
In words: co-IP; Flag-tagged MAZ and its truncations expressed in cells; Flag antibody (ab18230), Western blot; source of EWSR1 not stated.

The target of assay [2] is T3, MAZ in BiFC vector pBiFC-VC155 (human) (UniProt P56270).
T3 sequence: T2 sequence
In words: split reporter; BiFC: EWSR1 and MAZ cDNAs in pBiFC-VN173 and pBiFC-VC155, co-transfected into IMR32 and SH-SY5Y cells for 24 h, confocal microscopy; cells stably transfected with circ-CUX1 or sh-circ-CUX1.

Assay [3] concerns the target T1, MYC-associated zinc finger protein (human (endogenous in IMR32 and SH-SY5Y)). In words: co-IP; Myc-tagged EWSR1 and its truncations expressed in cells; Myc antibody (ab9106), Western blot; source of MAZ not stated.

No constants are given. Whether binding was seen depends on the method and setting. Binding seen in cells or lysates may run through a third protein. Some results given as binding are weak or reduced against the parent protein; the word gives no strength. For some of these results: Where a sequence is shown, tags or fusion partners need not be part of it.

For the substance “EWS RNA-binding protein 1 (from UniProt Q01844 1-656)”, the binding entry (in assay [1]; in the assay with Flag-tagged MAZ (human)) was “binds” each time. As to “EWSR1 in BiFC vector pBiFC-VN173 (from UniProt Q01844 1-656)”, in assay [2], the binding result is “binds”.

“Myc-tagged EWSR1 (from UniProt Q01844 1-656)”: the binding result in assay [3] is recorded as “binds”.

Values taken from article PMC6895612.
